Results as given in PubChem BioAssay AID720576 (National Center for Advancing Translational Sciences (NCATS), 2013).
This list was built around the results that the source calls inconclusive (neither active nor inactive); the mix of calls is not that of the screen. Potencies beside an inconclusive call are fits to weak or partial responses and may not hold up. Active and inactive are the calls of the source. The call rests on the fitted dose curve; in most records, active means well fitted inhibition curve with a large enough effect; inconclusive means small, poorly fitted or top-dose-only effect; inactive means no such curve, though single readings can be large or run the other way.

Experiment: qHTS Assay for Inhibitors of Hepatitis C Virus (HCV): Cytotoxicity Counterscreen for Cherry-picked Compounds
Conditions: HCV host cell line cytotoxicity counterscreen; activity change, negative = cytotoxicity: at 41.8 µM (top of the series)
Summary of the method: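 ATP-based luminescent viability (CellTiter-Glo) was measured in Huh cells exposed to compounds for 44 h at 37C. Cells had been plated at 1,000 cells/well and allowed 4 h before dosing.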
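Further: 44 h compound exposure; nearly all actives have a fitted effect of over 55% in size.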
On the % scale 0 is the no-effect control and ±100 the full control effect; potency means the concentration at half of the fitted maximal effect.

SMILES	Potency	activity change, negative = cytotoxicity
CCOc1ccc2c(C)nc(NC3=NC(C)(C)C=C(C)N3)nc2c1	inconclusive: 0.112 µM [inhibitor, full curve, poor fit]	–
Cc1ccc(Cn2ncc3c(N4CCN(CCc5ccccc5)CC4)ncnc32)cc1	active: 25 µM	–
Cc1cc(C)c2nc(NNC(=O)c3ccc(S(=O)(=O)N4CCc5ccccc5C4)cc3)sc2c1	inconclusive: 2.5 µM [inhibitor, full curve]	–
O=C(/C=C/c1ccco1)Nc1ccc(-c2nc3ccccc3[nH]2)cc1	inconclusive: 28 µM [inhibitor, partial curve, poor fit]	–
COc1ccc(C(=O)c2ccc(N(C)C)cc2)c2ccccc12	inactive	–
CNc1nc2cc([N+](=O)[O-])c([N+](=O)[O-])cc2nc1NC	inconclusive: 25 µM [inhibitor, single point]	–
Cc1nc2ccccc2n1Cc1ccc(Br)cc1	active: 1.99 µM	–
O=C(CCl)Nc1cc2[nH]c(=O)[nH]c2cc1Br	inconclusive: 31.5 µM [inhibitor, single point]	–
Cc1ccc(-n2c(SCC(=O)Nc3ccc(N4CCOCC4)cc3)nc3ccccc3c2=O)cc1	inactive	–
CCCCn1c(=N)n(CC(O)COc2cccc(C)c2)c2ccccc21 (centres undefined)	inconclusive: 31.5 µM [inhibitor, single point]	–
CCN(CC)c1ccc(NC(=O)/C=C/c2cc(Br)ccc2OC)cc1	inconclusive: 31.5 µM [inhibitor, single point]	–
COc1cccc(N(C(=O)CCl)C(C(=O)NCCc2ccccc2)c2cccs2)c1 (centres undefined)	active: 0.499 µM	–
CCOC(=O)c1cccc(NC(=O)c2cc3sccc3n2C)c1	inactive	–
CCc1c(C)nc2ncnn2c1NCCc1ccc(Cl)cc1	inconclusive: 8.87 µM [inhibitor, partial curve, poor fit]	–
COc1cc(-c2nc(-c3ccc4c(c3)-c3ccccc3S4(=O)=O)c(-c3ccccc3)[nH]2)cc(OC)c1OC	inconclusive: 31.5 µM [inhibitor, partial curve, poor fit]	–
COCCCn1c(SCc2cccc(OC)c2)nc2cc(OC)c(OC)cc2c1=N	inactive	–
CCN(CC)S(=O)(=O)c1ccc2c(c1)C(=NO)c1cc(S(=O)(=O)N(CC)CC)ccc1-2	inconclusive: 8.87 µM [inhibitor, partial curve, poor fit]	–

Two neighbouring records from above, for reference:
SMILES	Potency	activity change, negative = cytotoxicity
Cc1ccc(-n2c(SCC(=O)Nc3ccc(N4CCOCC4)cc3)nc3ccccc3c2=O)cc1	inactive	–
CCCCn1c(=N)n(CC(O)COc2cccc(C)c2)c2ccccc21 (centres undefined)	inconclusive: 31.5 µM [inhibitor, single point]	–

Next part.

SMILES	Potency	activity change, negative = cytotoxicity
CCOc1ccc(C(=O)C(CCC(CN(C)C)C(=O)c2ccc(OCC)cc2)CN(C)C)cc1 (centres undefined)	active: 7.91 µM	–
COc1ccccc1CC(=O)Nc1cc2oc3ccccc3c2cc1OC	inactive	–
CN=c1sc2c(n1C)C(=O)c1ccccc1C2=O	active: 28 µM	–
COC(=O)c1c(NC(=O)Cc2cccs2)sc2c1CCCC2	–	inconclusive: -46.2% [inhibitor]
CN(C)c1nc(N)nc(CSc2nnnn2-c2cccc3ccccc23)n1	active: 6.28 µM	–
COc1ccc(NC(=O)/C(Cl)=C(/Cl)S(=O)Cc2ccccc2)cn1 (centres undefined)	active: 6.28 µM	–
CCC1CCCCN1C(=O)c1cc(COc2ccc3ncccc3c2)on1 (centres undefined)	active: 3.15 µM	–
Cc1cc(Oc2ccc(N)cn2)ccc1Cl	inactive	–
COC(=O)c1ccc(CN2CCc3ccc(NC(=O)c4ccncc4)cc3C2)cc1	inconclusive: 12.5 µM [inhibitor, partial curve]	–
COc1cccc(C(=O)Oc2c(CN3CCOCC3)cc(Cl)c3cccnc23)c1	inconclusive: 35.3 µM [inhibitor, partial curve, poor fit]	–
COc1ccc(OC)c(NC(=O)/C=C/c2ccc(S(=O)(=O)N3CCOCC3)cc2)c1	inconclusive: 25 µM [inhibitor, single point]	–
CCN(CC)C(=O)CSc1nc2cc3c(cc2c(=O)n1Cc1ccc(OC)cc1)OCO3	inactive	–
CCn1c(=O)n(CC)c2cc(N3CCCC3)c(NC(=O)c3cc(Cl)ccc3OC)cc21	inconclusive: 31.5 µM [inhibitor, single point]	–
Cc1cccc2cc(C#N)c(NCCCNS(=O)(=O)c3ccc(Cl)cc3)nc12	inconclusive: 17.7 µM [inhibitor, partial curve, poor fit]	–
CN1CCc2c(sc(NC(=O)c3ccc([N+](=O)[O-])o3)c2C(N)=O)C1	inconclusive: 31.5 µM [inhibitor, partial curve, poor fit]	–
O=C(Nc1ncc(Cc2ccc(SC(F)F)cc2)s1)c1ccccc1	active: 28 µM	–
COc1ccc(-c2cc(C)no2)cc1S(=O)(=O)N1CCN(c2ccc([N+](=O)[O-])cc2)CC1	active: 25 µM	–
